Results are given in words; binding and its absence hold for the method and conditions named. Binding calls can cover weak binding; strength is not graded here. Where a sequence is shown, tags or fusion partners need not be part of it.

The target of experiment [1] is T1, AtHIR4 (BD fusion) (Arabidopsis thaliana) (UniProt Q9FHM7).
T1 sequence: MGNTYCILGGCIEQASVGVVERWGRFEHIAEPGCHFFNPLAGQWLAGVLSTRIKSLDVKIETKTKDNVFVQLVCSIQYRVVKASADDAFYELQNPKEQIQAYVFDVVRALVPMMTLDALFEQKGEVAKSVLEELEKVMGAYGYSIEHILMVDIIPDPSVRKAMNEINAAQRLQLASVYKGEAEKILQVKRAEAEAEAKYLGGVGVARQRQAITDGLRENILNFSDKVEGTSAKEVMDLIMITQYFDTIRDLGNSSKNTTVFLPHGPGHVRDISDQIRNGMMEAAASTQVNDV
Briefly: two-hybrid; HIR-BD (pGBT9) as bait and JAZ-AD (pGAD424) as prey co-transformed into Y2HGOLD yeast, 30 °C; growth on -Leu/-Trp/-His/-Ade medium with X-alpha-gal.

Experiment [2] has as its target T2, AtHIR1 (BD fusion) (Arabidopsis thaliana) (UniProt Q9FM19).
T2 sequence: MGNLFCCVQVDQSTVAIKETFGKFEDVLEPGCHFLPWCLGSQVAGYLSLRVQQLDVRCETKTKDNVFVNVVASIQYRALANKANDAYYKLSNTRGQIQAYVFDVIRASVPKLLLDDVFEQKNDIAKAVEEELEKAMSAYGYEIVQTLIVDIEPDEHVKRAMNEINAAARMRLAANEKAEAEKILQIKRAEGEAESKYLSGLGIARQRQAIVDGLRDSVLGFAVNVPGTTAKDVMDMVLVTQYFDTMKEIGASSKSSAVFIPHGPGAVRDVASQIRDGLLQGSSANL
The experiment is described as above.

For experiment [3], the target named is T3, AtHIR2 (BD fusion) (Arabidopsis thaliana) (UniProt Q9CAR7).
T3 sequence: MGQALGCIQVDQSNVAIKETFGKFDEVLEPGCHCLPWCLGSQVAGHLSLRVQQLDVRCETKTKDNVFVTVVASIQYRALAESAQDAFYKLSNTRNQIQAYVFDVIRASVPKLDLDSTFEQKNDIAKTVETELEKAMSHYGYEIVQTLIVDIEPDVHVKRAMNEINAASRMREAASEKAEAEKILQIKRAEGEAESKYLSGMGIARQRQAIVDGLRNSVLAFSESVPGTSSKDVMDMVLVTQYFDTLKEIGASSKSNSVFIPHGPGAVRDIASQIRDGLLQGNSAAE
The experiment is described as above.

For experiment [4], the target named is T4, AtHIR3 (BD fusion) (Arabidopsis thaliana) (UniProt Q9SRH6).
T4 sequence: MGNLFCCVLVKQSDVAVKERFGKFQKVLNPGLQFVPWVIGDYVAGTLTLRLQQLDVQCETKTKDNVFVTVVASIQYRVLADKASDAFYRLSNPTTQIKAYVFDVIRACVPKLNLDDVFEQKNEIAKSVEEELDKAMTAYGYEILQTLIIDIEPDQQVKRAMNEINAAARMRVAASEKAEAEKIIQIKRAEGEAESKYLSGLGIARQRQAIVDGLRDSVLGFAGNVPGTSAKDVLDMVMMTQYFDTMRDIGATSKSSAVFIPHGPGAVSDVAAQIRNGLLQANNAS
The description is as above.

For another experiment, the target named is AtJAZ9-HIS (Arabidopsis). Briefly: pull-down; purified JAZ-HIS and HIR-GST proteins mixed, 1 h at 4 °C, 80 rpm, recovered with a His purification kit; Western blot with anti-His and anti-GST; both purified. In general terms: A western blot detects proteins with antibodies after separation by electrophoresis.
In the next experiment the target is AtJAZ3-HIS (Arabidopsis). Described as above.

As for AtJAZ4 (AD fusion) (Arabidopsis), the binding result was “binds” in experiment [1], “binds” in experiment [2], “no binding” in experiment [3] and “no binding” in experiment [4].

On to AtJAZ9 (AD fusion) (Arabidopsis), for which the binding result is “binds” in experiment [1], “binds” in experiment [2], “no binding” in experiment [3] and “no binding” in experiment [4].

Turning to AtJAZ3 (AD fusion) (Arabidopsis), the binding result in experiment [1], in experiment [2], in experiment [3] and in experiment [4] was “binds” in each case.

B1: AtHIR1-GST (protein, UniProt Q9FM19 1-286)
chain: T2 sequence
Consider B1, for which the binding entry with AtJAZ9-HIS (Arabidopsis) and with AtJAZ3-HIS (Arabidopsis) was “binds” throughout.

The values are drawn from paper PMC5357849.
